According to patent US20200016058A1, “HORNY LAYER FUNCTION IMPROVING AGENT” (Ajinomoto Co., Inc., priority 2017, published 2020):

Tested on: horny layer of the subjects
Test: Correlation between D-amino acid content in the horny layer and horny layer moisture content (Skicon-200EX, cheek)
Type: in vivo, women
Settings: absolute value of correlation coefficient; for Moisture retainability Horny layer moisture content, Elderly person (correlation with D-amino acid content in horny layer): women in their forties to sixties; for Moisture retainability Horny layer moisture content, Young person (correlation with D-amino acid content in horny layer): women in their twenties to thirties

Row | SMILES | Moisture retainability Horny layer moisture content, Elderly person (correlation with D-amino acid content in horny layer) | Moisture retainability Horny layer moisture content, Young person (correlation with D-amino acid content in horny layer)
1 | CC[C@H](C)[C@@H](N)C(=O)O [D-allo-Ile, D-allo-isoleucine] | A (Cases with an absolute value of a correlation coefficient of 0.4 or more were evaluated to be “A” as having “a strong correlation”) | A (Cases with an absolute value of a correlation coefficient of 0.4 or more were evaluated to be “A” as having “a strong correlation”)
2 | N[C@H](Cc1c[nH]c2ccccc12)C(=O)O [D-Trp, D-tryptophan] | C (cases with that of 0.2 or more were evaluated to be “C” as having “a weak correlation.”) | C (cases with that of 0.2 or more were evaluated to be “C” as having “a weak correlation.”)
3 | CC(C)[C@@H](N)C(=O)O [D-Val, D-valine] | A (Cases with an absolute value of a correlation coefficient of 0.4 or more were evaluated to be “A” as having “a strong correlation”) | A (Cases with an absolute value of a correlation coefficient of 0.4 or more were evaluated to be “A” as having “a strong correlation”)
4 | N[C@H](Cc1c[nH]cn1)C(=O)O [D-His, D-histidine] | C (cases with that of 0.2 or more were evaluated to be “C” as having “a weak correlation.”) | B (cases with that of 0.3 or more were evaluated to be “B” as having “a medium correlation,”)
5 | N[C@H](CC(=O)O)C(=O)O [D-Asp, D-aspartic acid] | C (cases with that of 0.2 or more were evaluated to be “C” as having “a weak correlation.”) | A (Cases with an absolute value of a correlation coefficient of 0.4 or more were evaluated to be “A” as having “a strong correlation”)
6 | NC(=O)CC[C@@H](N)C(=O)O [D-Gln, D-glutamine] | C (cases with that of 0.2 or more were evaluated to be “C” as having “a weak correlation.”) | 
7 | NCCCC[C@@H](N)C(=O)O [D-Lys, D-lysine] | C (cases with that of 0.2 or more were evaluated to be “C” as having “a weak correlation.”) | B (cases with that of 0.3 or more were evaluated to be “B” as having “a medium correlation,”)
8 | NC(=O)C[C@@H](N)C(=O)O [D-Asn, D-asparagine] | B (cases with that of 0.3 or more were evaluated to be “B” as having “a medium correlation,”) | A (Cases with an absolute value of a correlation coefficient of 0.4 or more were evaluated to be “A” as having “a strong correlation”)
9 | C[C@@H](O)[C@@H](N)C(=O)O [D-allo-Thr, D-allo-threonine] | B (cases with that of 0.3 or more were evaluated to be “B” as having “a medium correlation,”) | A (Cases with an absolute value of a correlation coefficient of 0.4 or more were evaluated to be “A” as having “a strong correlation”)
10 | N[C@H](Cc1ccc(O)cc1)C(=O)O [D-Tyr, D-tyrosine] |  | C (cases with that of 0.2 or more were evaluated to be “C” as having “a weak correlation.”)
11 | CC(C)C[C@@H](N)C(=O)O [D-Leu, D-leucine] | C (cases with that of 0.2 or more were evaluated to be “C” as having “a weak correlation.”) | A (Cases with an absolute value of a correlation coefficient of 0.4 or more were evaluated to be “A” as having “a strong correlation”)
12 | N[C@H](CO)C(=O)O [D-Ser, D-serine] |  | A (Cases with an absolute value of a correlation coefficient of 0.4 or more were evaluated to be “A” as having “a strong correlation”)
13 | N[C@H](Cc1ccccc1)C(=O)O [D-Phe, D-phenylalanine] |  | A (Cases with an absolute value of a correlation coefficient of 0.4 or more were evaluated to be “A” as having “a strong correlation”)
14 | N=C(N)NCCC[C@@H](N)C(=O)O [D-Arg, D-arginine] | C (cases with that of 0.2 or more were evaluated to be “C” as having “a weak correlation.”) | C (cases with that of 0.2 or more were evaluated to be “C” as having “a weak correlation.”)
15 | O=C(O)[C@H]1CCCN1 [D-Pro, D-proline] | B (cases with that of 0.3 or more were evaluated to be “B” as having “a medium correlation,”) | A (Cases with an absolute value of a correlation coefficient of 0.4 or more were evaluated to be “A” as having “a strong correlation”)

Some compounds share one wording; it may come from a single statement.
